In patent US20180011102A1, “THE PROTEIN KINASE ACTIVITY OF PHOSPHOGLYCERATE KINASE 1 AS A TARGET FOR CANCER TREATMENT AND DIAGNOSIS” (Board of Regents, The University of Texas System, priority 2015, published 2018):
Results are given in words; binding and its absence hold for the method and conditions named. In cells and extracts the contact can be indirect. Some entries that bind do so weakly or less than the wild type. For part of these data: Tags and fused reporters may be left off the sequences shown. Each block holds one substance with its values, some of them ahead of it.

Protein sequences, listed by entry. Tags and fused reporters are not part of them. Residues count along the entry.
UniProt Q15388: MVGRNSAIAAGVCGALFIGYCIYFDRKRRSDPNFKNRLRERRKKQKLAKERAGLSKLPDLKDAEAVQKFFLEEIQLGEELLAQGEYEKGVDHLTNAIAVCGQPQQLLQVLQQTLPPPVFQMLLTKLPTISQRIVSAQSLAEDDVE
UniProt Q15118, residues 29-436: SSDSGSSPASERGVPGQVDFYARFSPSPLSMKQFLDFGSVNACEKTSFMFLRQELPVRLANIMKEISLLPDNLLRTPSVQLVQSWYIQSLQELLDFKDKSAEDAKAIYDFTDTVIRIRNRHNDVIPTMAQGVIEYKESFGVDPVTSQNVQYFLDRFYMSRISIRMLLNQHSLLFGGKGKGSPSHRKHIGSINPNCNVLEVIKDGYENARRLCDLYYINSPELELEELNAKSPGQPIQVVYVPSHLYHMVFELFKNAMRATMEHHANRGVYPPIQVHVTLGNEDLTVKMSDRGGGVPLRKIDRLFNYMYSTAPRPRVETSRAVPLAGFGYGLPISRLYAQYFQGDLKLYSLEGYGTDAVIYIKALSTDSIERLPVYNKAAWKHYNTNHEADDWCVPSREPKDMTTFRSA
UniProt P28482: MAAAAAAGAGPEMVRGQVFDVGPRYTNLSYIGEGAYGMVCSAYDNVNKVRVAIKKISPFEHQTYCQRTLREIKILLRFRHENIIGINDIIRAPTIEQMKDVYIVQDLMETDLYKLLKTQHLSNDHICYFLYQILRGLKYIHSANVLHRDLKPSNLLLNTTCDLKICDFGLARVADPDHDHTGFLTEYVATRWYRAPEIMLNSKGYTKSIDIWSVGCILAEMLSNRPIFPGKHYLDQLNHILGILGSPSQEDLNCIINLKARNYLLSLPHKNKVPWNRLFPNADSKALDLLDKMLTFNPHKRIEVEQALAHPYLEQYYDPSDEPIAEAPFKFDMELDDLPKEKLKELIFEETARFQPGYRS

Legend:
[1] = target: endogenous PGK1 (phosphoglycerate kinase 1) of U87 human GBM cells (human) (UniProt P00558); experiment: streptavidin pull-down from mitochondrial fractions of U87 cells (FIG. 14C)
[2] = target: endogenous TOM20 of U87 cells (human) (UniProt Q15388); experiment: co-immunoprecipitation from U87 cells (FIG. 3A)
[3] = target: T1, GST-PGK1 (wild type), bacterially purified (human) (UniProt P00558); experiment: in vitro GST pull-down, purified recombinant proteins (FIG. 10G)
T1 sequence (looked up): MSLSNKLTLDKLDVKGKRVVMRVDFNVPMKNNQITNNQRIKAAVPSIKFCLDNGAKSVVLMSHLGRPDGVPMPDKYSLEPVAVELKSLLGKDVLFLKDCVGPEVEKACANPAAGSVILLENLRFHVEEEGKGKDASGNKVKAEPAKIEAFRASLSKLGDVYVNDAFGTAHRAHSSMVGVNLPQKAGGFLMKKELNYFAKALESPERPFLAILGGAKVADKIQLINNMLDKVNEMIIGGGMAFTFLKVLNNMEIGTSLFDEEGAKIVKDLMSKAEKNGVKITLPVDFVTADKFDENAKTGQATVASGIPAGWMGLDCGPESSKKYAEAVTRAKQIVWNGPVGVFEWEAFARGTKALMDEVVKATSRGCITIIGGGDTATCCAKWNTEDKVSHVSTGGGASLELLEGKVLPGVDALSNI

binding [1]: binds
Substance: SFB-PDHK1 expressed in U87 cells (from UniProt Q15118 29-436) (enzyme)

binding [2]: binds
Substance: endogenous PGK1 (phosphoglycerate kinase 1) of U87 human GBM cells (from UniProt P00558 2-417) (enzyme)

binding [3]: binds
Substance: purified recombinant active His-ERK2 (from UniProt P28482 1-360) (enzyme)
